Measured values published in doi:10.1101/2023.08.01.551421 (bioRxiv, 2023).
No constants are given. Whether binding was seen depends on the method and setting. Some entries that bind do so weakly or less than the wild type.

Experiments:
[1] = molecular target: GBP1 M139D, non-farnesylated (human) (UniProt P32455); assay: SEC
[2] = molecular target: T1, human guanylate-binding protein 1 (GBP1), wild type, farnesylated (human), P32455; assay: negative-stain TEM; conditions: remark: other sources report otherwise
T1 chain: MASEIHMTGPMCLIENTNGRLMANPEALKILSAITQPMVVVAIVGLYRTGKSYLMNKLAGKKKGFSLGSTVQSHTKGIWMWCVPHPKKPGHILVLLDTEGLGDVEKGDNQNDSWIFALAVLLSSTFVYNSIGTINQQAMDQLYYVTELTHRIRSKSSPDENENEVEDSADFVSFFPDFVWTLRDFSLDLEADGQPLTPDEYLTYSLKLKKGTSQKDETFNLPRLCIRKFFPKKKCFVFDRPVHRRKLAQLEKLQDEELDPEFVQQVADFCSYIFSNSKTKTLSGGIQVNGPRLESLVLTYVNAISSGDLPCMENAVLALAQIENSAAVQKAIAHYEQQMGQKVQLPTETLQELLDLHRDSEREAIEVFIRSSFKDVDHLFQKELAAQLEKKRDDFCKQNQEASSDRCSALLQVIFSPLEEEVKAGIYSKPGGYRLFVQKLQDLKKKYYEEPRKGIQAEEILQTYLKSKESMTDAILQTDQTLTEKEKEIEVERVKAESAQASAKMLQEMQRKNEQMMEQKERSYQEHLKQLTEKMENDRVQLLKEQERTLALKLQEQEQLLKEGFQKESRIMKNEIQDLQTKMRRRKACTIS

[3] = molecular target: T1, human guanylate-binding protein 1 …; assay: cryo-EM structure; conditions: remark: other sources report otherwise
[4] = molecular target: T1, human guanylate-binding protein 1 …; assay: negative-stain TEM; conditions: remark: other sources report otherwise
[5] = molecular target: T1, human guanylate-binding protein 1 …; assay: sedimentation assay; conditions: remark: other sources report otherwise
[6] = molecular target: T1, human guanylate-binding protein 1 …; assay: sedimentation assay; conditions: remark: other sources report otherwise
[7] = molecular target: T1, human guanylate-binding protein 1 …; assay: light scattering-based polymerization assay; conditions: remark: other sources report otherwise
[8] = molecular target: T1, human guanylate-binding protein 1 …; assay: cross-linking; conditions: remark: other sources report otherwise
[9] = molecular target: T1, human guanylate-binding protein 1 …; assay: light scattering-based polymerization assay; conditions: remark: other sources report otherwise

GBP1 M139D, non-farnesylated (from UniProt P32455 1-592)
binding [1]: no binding (tested: 20 µM)

B1: human guanylate-binding protein 1 (GBP1), wild type, farnesylated, P32455 (natural protein)
chain: T1 chain
modifications: here or on the partner: farnesyl moiety, C-terminal (CaaX box motif); farnesyl moiety, C-terminal (CaaX box motif)
binding [2]: binds | binding [3]: binds | binding [4]: binds | binding [5]: binds | binding [6]: binds | binding [7]: binds | binding [8]: binds | binding [9]: binds
